Test results as given in PMC6756898.
No constants are given. Whether binding was seen depends on the method and setting. Binding seen in cells or lysates may run through a third protein. Some binding calls cover weakened binding; strength is not graded here.

Protein sequences, listed by entry. Tags and fused reporters are not part of them. Residues count along the entry.
UniProt P01137, residues 30-390: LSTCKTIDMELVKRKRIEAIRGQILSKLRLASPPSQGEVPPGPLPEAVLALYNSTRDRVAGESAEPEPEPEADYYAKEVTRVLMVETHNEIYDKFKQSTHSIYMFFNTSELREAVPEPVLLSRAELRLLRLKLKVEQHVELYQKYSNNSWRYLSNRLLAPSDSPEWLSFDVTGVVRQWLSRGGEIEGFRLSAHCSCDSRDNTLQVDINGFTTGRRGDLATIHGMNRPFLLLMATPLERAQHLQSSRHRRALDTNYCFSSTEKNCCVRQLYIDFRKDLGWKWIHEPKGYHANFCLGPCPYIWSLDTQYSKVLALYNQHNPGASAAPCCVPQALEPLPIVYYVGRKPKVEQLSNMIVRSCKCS
UniProt P42263, residues 29-894: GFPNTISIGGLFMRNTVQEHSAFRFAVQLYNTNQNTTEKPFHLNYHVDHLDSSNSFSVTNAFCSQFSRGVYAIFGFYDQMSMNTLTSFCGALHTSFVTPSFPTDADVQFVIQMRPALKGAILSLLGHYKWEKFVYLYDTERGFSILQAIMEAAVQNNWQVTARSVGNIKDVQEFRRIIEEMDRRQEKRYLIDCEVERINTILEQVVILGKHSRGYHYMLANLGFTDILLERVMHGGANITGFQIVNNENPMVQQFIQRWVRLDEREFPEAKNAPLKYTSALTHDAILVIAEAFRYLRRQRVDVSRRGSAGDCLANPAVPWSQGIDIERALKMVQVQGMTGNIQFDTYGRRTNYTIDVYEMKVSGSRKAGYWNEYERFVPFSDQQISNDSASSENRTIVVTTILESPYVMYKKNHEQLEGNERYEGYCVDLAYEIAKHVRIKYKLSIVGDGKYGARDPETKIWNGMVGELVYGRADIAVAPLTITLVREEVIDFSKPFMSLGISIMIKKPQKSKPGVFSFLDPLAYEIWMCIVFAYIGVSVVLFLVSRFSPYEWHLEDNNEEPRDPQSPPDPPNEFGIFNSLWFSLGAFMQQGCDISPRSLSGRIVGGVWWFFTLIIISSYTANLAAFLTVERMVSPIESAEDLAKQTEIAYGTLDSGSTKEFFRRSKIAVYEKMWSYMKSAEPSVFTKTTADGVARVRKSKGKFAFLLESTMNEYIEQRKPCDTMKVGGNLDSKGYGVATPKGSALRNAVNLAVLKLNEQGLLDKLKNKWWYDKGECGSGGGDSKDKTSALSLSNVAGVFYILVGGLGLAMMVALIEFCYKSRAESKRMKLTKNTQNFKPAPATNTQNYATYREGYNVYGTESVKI

Molecular target: TGF-β1 (human (endogenous in HCC827)) (UniProt P01137)
Assay: co-IP; endogenous proteins in HCC827 cells; co-IP and Western blotting; which protein was precipitated is not told

binding: binds
Substance: GRIA3 (from UniProt P42263 29-894)
